Some results were stated once for a whole list of compounds, not compound by compound.
Test system: STING signalling pathway
Assay: Interferon-β promoter SEAP reporter assay in THP1-Blue cells
Format: cell-based, human
Details: printed as factor of up to >10 for the listed compounds together (FIG. 1)
Method: Legend for Synthesis 4: THP1-Blue™ cells ((THP1-ISG); InvivoGen, catalogue number: thp-isg; concentration: 5×10^5/ml, 180 μl/well (96-well-plate) were incubated with inventive CDNs in different concentrations (0 μg/ml; 10 μg/ml; 20 μg/ml; 40 μg/ml) in medium (RPMI-1640, 2 mM L-glutamine, 1.5 g/I sodium bicarbonate, 4.5 g/I glucose, 10 mM HEPES, 1 mM sodium pyruvate, 10% FCS, 100 μg/ml Zeocin™, 110 μg/ml Normocin™, Pen-Strep 50 U/ml) for 24 hours at 37° C. in 5% CO2. The quantification was performed with SEAP detection reagent QUANTI-Blue™ (InvivoGen; catalogue number: rep-qb1; incubation time: 30 min at 37° C. in 5% CO2) by optical density (OD) determination at 625 nm.
Legend for Synthesis 5: THP1-Blue™ cells ((THP1-ISG); InvivoGen, catalogue number: thp-isg; concentration: 5×10^5/ml, 180 μl/well (96-well-plate) and THP1 Dual™ KO STING cells ((STING KO) InvivoGen, catalogue number: thpd-kostg; concentration: 5×10^5/ml, 180 μl/well (96-well-plate) were incubated with inventive CDNs (concentration 40 μg/ml each) in medium (RPMI-1640, 2 mM L-glutamine, 1.5 g/I sodium bicarbonate, 4.5 g/I glucose, 10 mM HEPES, 1 mM sodium pyruvate, 10% FCS, 100 μg/mL Zeocin™, 110 μg/mL Normocin™, Pen-Strep 50 U/mL) for 24 hours at 37° C. in 5% CO2. For incubations with THP1 Dual™ KO STING cells, 10 μg/ml of blasticidin were added to the medium. Quantification was performed with SEAP detection reagent QUANTI-Blue™ (InvivoGen; catalogue number: rep-qb1; incubation time: 15 min at 37° C. in 5% CO2) by optical density (OD) determination at 625 nm.
Cell line: THP1-Blue™ cells (InvivoGen, catalogue number: thp-isg) are derived from THP1 cells. THP1-Blue™ cells in a cell culture dish are stimulated by the administration of a CDN according to the invention or a buffer control.
In these genetically modified cells, the gene for secreted embryonic alkaline phosphatase (SEAP) is under the control of an interferon-β promoter.
After stimulation of the cells with an inventive CDN, the supernatant of the cell culture was removed and the enzymatic activity of SEAP was measured photometrically in a colorimetric assay by measuring the extinction at 625 nm (optical density; OD 625 nm).
Administration of an inventive CDN induces an increase in the activity of SEAP, which is a measure of the activity of the STING signalling pathway.

Structure (SMILES)	increased SEAP-activity, factor compared to the control compounds 3′,3′-cGAMP and c-diAMP
Nc1nc2c(ncn2[C@@H]2O[C@@H]3COP(=O)(S)OC4C(O)[C@H](n5cnc6ccccc65)O[C@@H]4COP(=O)(S)OC2C3O)c(=O)[nH]1 (single isomer, unassigned) [Compound 23, MI2, Cyclic (guanosine-(2′→5′)-monophosphorothioate-benzimidazole riboside-(3′→5′)-monophosphorothioate)]	> 10
Nc1nc2c(ncn2[C@@H]2O[C@@H]3COP(=O)(S)OC4C(O)[C@H](n5cnc6cc(Cl)c(Cl)cc65)O[C@@H]4COP(=O)(S)OC2C3O)c(=O)[nH]1 (single isomer, unassigned) [Compound 29, MI2, Cyclic (guanosine-(2′→5′)-monophosphorothioate-5,6-dichlorobenzimidazole riboside-(3′→5′)-monophosphorothioate)]	> 10
Nc1ncnc2c1ncn2[C@@H]1O[C@@H]2COP(=O)(S)OC3C(O)[C@@H](COP(=O)(S)OC2C1O)O[C@H]3n1cnc2ccccc21 (single isomer, unassigned) [Compound 98, MI1, Cyclic (adenosine-(3′→5′)-monophosphorothioate-benzimidazole riboside-(2′→5′)-monophosphorothioate)]	> 10
Nc1ncnc2c1ncn2[C@@H]1O[C@@H]2COP(=O)(O)OC3C(O)[C@H](n4cnc5ccccc54)O[C@@H]3COP(=O)(O)OC2C1F (some centres unmarked) [Compound 79, cyclic (2′-fluoro-2′-deoxyadenosine-(3′ −> 5′)-monophosphate-benzimidazole riboside-(3′ −> 5′)-monophosphate)]	> 10
Nc1ncnc2c1ncn2[C@@H]1O[C@@H]2COP(=O)(O)OC3C(O)[C@H](n4cnc5cc(Cl)c(Cl)cc54)O[C@@H]3COP(=O)(O)OC2C1F (some centres unmarked) [Compound 81, cyclic (2′-fluoro-2′-deoxyadenosine-(3′ −> 5′)-monophosphate-5,6-dichlorobenzimidazole riboside-(3′ −> 5′)-monophosphate)]	> 10

From patent US11001605B2, “Cyclic dinucleotides containing benzimidazole, method for the production of same, and use of same to activate stimulator of interferon genes (sting)-dependent signaling pathways” (BIOLOG LIFE SCIENCE INSTITUTE GmbH & Co. KG, priority 2016, dated 2021)
